Measurements as given in the supplement of paper PMC4604168 (melanoma cell lines).
The other results are listed elsewhere or left out. Many values rest on one well or one pass, so single values are uncertain.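 The apoptosis fraction was the count of cleaved-PARP antibody-stained nuclei relative to all DNA-stained nuclei, imaged in 1,536-well plates. Screening doses were set so most cells survived, and baseline and induced cleaved-PARP levels vary greatly across cell lines.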

Assays:
Experiment in all cases: cleaved PARP positive nuclei fraction relative to DMSO control; melanoma cells; higher = more apoptosis
Conditions in all cases: library dose: low library concentration; 72 h
WM115 = system: WM115
WM1716 = system: WM1716
WM1745 = system: WM1745
WM3526 = system: WM3526
WM3619 = system: WM3619
WM451Lu = system: WM451Lu

## CCCCCCCCc1ccc(CCC(N)(CO)CO)cc1 [fingolimod] + O=c1cc(-c2cccc3c2Sc2ccccc2S3)oc(N2CCOCC2)c1 [KU55933] (first compound 2 µM, partner dose 1 µM)
WM115
  cleaved PARP positive nuclei fraction: 69%
WM1716
  cleaved PARP positive nuclei fraction: 61.4%
WM1745
  cleaved PARP positive nuclei fraction: 108%
WM3526
  cleaved PARP positive nuclei fraction: 73.2%
WM3619
  cleaved PARP positive nuclei fraction: 93%
WM451Lu
  cleaved PARP positive nuclei fraction: 174%

## CS(=O)(=O)c1ccc(C(=O)Nc2ccc(Cl)c(-c3ccccn3)c2)c(Cl)c1 [vismodegib] + CCCCCCCCc1ccc(CCC(N)(CO)CO)cc1 [fingolimod] (first compound 1 µM, partner dose 2 µM)
WM115
  cleaved PARP positive nuclei fraction: 133%
WM1716
  cleaved PARP positive nuclei fraction: 77.7%
WM1745
  cleaved PARP positive nuclei fraction: 107%
WM3526
  cleaved PARP positive nuclei fraction: 38.7%
WM3619
  cleaved PARP positive nuclei fraction: 101%
WM451Lu
  cleaved PARP positive nuclei fraction: 44.8%

## C[C@@H](N)c1ccc(C(=O)Nc2ccnc3[nH]ccc23)cc1 + CS(=O)(=O)CCNCc1ccc(-c2ccc3ncnc(Nc4ccc(OCc5cccc(F)c5)c(Cl)c4)c3c2)o1 [lapatinib] (first compound 0.4 µM, partner dose 0.8 µM)
WM115
  cleaved PARP positive nuclei fraction: 78.2%
WM1716
  cleaved PARP positive nuclei fraction: 97.5%
WM1745
  cleaved PARP positive nuclei fraction: 145%
WM3526
  cleaved PARP positive nuclei fraction: 122%
WM3619
  cleaved PARP positive nuclei fraction: 150%
WM451Lu
  cleaved PARP positive nuclei fraction: 49.2%

## CC(=O)O[C@@]12CO[C@@H]1C[C@H](O)[C@@]1(C)C(=O)[C@H](O)C3=C(C)[C@@H](OC(=O)[C@H](O)[C@@H](NC(=O)OC(C)(C)C)c4ccccc4)C[C@@](O)([C@@H](OC(=O)c4ccccc4)[C@H]21)C3(C)C [Docetaxel] + CC1(C)NC(=O)N(c2ccc([N+](=O)[O-])c(C(F)(F)F)c2)C1=O [nilutamide] (first compound 0.0001 µM, partner dose 1 µM)
WM115
  cleaved PARP positive nuclei fraction: 241%
WM1716
  cleaved PARP positive nuclei fraction: 702%
WM1745
  cleaved PARP positive nuclei fraction: 259%
WM3526
  cleaved PARP positive nuclei fraction: 142%
WM3619
  cleaved PARP positive nuclei fraction: 98.2%
WM451Lu
  cleaved PARP positive nuclei fraction: 214%
